A: 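Growth of Mycobacterium tuberculosis over 4 days (cholesterol / DPPC medium with tyloxapol); the read-out is not stated. Concentration: 50 µM. Direction is inferred from retests: higher values go with more growth inhibition. Size under these conditions: about 69,000 compounds, about 370 of them at 50% or above in at least one test.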
B: 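Whole-cell growth test on Mycobacterium tuberculosis, read after 3 days in glucose-containing 7H9 medium; the read-out is not stated. Tested at 50 µM. Direction is inferred from retests: higher values go with more growth inhibition. About 69,000 compounds were tested under these conditions; 1.1% (about 760) showed 50% or more at least once.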

Results are given as percent effect. The record does not define 0% and 100%; most values in the screen are far below 50% and negative numbers occur (in some assays of this library far below -100). This is an unselected part of the compounds tested. Two or more numbers in one place are separate tests of the same structure; such repeats can differ widely.

compound | A | B
CN(C)c1nccc(C2CCN(C3CCCCC3O)CC2)n1 (centres undefined) | -5.341 | -6.995
Cc1cccc(OCC(O)CNCc2c(C)nn(C)c2N(C)C)c1 (centres undefined) | -1.442 | -8.119
O=C(CCNC(=O)C1CCCC1)NCc1ccccc1Cn1cncn1 | -2.123 | -13.87
Cc1csc(Nc2nccnc2C2CCCN2S(C)(=O)=O)n1 (centres undefined) | -10.85 | -9.385
O=C(c1ccncc1)N1CCCn2c(CN3CCCCC3)nnc2C1 | -6.181 | -4.844
Cn1ncc2c1CN(Cc1ccc(F)cc1)CC2COCC1CC1.O=C(O)C(F)(F)F.O=C(O)C(F)(F)F (centres undefined) | -5.865 | -17.82
O=C(NCC(c1ccc(F)cc1)N1CCOCC1)Nc1cn[nH]c1 (centres undefined) | -18.87 | -6.761
O=S(=O)(NCc1ccc(S(=O)(=O)N2CCCC2)s1)c1cc(Cl)cc(Cl)c1 | -5.088 | 7.275
Cn1ccc(CS(=O)(=O)Cc2ccccc2)cc1=O | 0.5588 | -4.853 & -13.25
CC(C)N1c2sc(-c3ccsc3)nc2CC1C(=O)NC1CCCC1 (centres undefined) | 9.12 | 5.771 & -22.86
CC(=O)NCC1CCN(C(=O)c2ccc(Sc3ccccn3)cc2)CC1 | -15.97 | 2.662 & 0.2644
CN(C(=O)c1cccc(NCC(=O)O)c1)C(C1CC1)C1CC1 | -10.49 | -5.706 & -5.432
Cc1cc(-c2cnn(CCNC(=O)c3snnc3C)c2C2CC2)on1 | -10.78 | -13.89
O=C(c1cnn2ccccc12)N1CCCC(OCc2ccccn2)C1 (centres undefined) | -24.72 | -19.43
O=C1NCCN2CCN(Cc3ccc(Cl)c(Cl)c3)CC12 (centres undefined) | 22.04 | 18.85 & 0.1652
CN(CCCc1cnn(C)c1)C(=O)C1CCOC1 (centres undefined) | -33.36 | -12.26 & -40.55
Cc1nn(C(=O)c2cccnc2)c(C)c1C | -68.62 | -56.74
Cc1cccc(N2CCN(C(=O)c3c(C)nn(C)c3C)CC2)c1C | -4.835 | 14.55
Cc1ccccc1C(C)(C)CNC(=O)CN(C)c1cnccn1 | -3.028 | -1.111 & 9.558
Cc1ccc(CN2CC[C@@H](O)[C@@H]2Cc2ccccc2)o1.O=C(O)C(F)(F)F | -9.107 | -11.58 & -13.6
Cc1ccccc1C(O)CNS(=O)(=O)Cc1cccc(C#N)c1 (centres undefined) | 19.69 | 8.934
NC(=O)c1cn(CC2CCC2)c(C2CC2)n1 | 0.7964 | 5.833 & 4.231
CNc1nc(C)c(C(=O)N2CCCCC2CCc2ccccc2)s1 (centres undefined) | -9.295 | 4.549
[H][C@@]12CS(=O)(=O)C[C@]1([H])N(C(=O)CSc1ccccn1)CCN2C(=O)C1CC1 | -17.75 | -22.05 & -26.35
O=C(NCc1ccc(N2CC=CC2)cc1)Nc1nnc(C2CC2)s1 | -16.81 | 3.305
CCc1csc(C2CCCN(C(=O)c3cnn(CC)c3)C2)n1 (centres undefined) | 1.947 | -11.02 & 6.759
Cc1ccc(N(CCC#N)C(=O)CCc2cccnc2)cc1C | -20.88 | 16.88
O=S(=O)(CC1CCCCO1)Nc1cc(F)ccc1-n1cccn1 (centres undefined) | -10.36 | -27.69
O=C(c1cnc[nH]1)N1CCC(Oc2cccnc2)CC1 | 13.15 | 8.148
[H][C@@]12CN(CC3CCCC3)C[C@]1([H])OCCN2c1cnccn1 | -0.6917 | -11.9
Cc1ccccc1N1CCN(C(=O)Cn2ccnc2)CC1=O | -35.69 | -41.7
[H][C@]12CC[C@]([H])(CN(C(=O)c3ccccn3)C1)N(C(=O)CCC1CCCC1)C2 | 2.112 & -1.302 | 8.369
O=C(O)C(F)(F)F.[H][C@@]12CN(Cc3c(C)noc3C)C[C@]1([H])CC(F)(F)C2 | 16.92 | 0.9697

Some entries from above, unchanged:

{"compound": "Cc1cccc(OCC(O)CNCc2c(C)nn(C)c2N(C)C)c1", "stereo": "centres undefined", "A": -1.442, "B": -8.119}
{"compound": "Cc1cc(-c2cnn(CCNC(=O)c3snnc3C)c2C2CC2)on1", "A": -10.78, "B": -13.89}
{"compound": "O=S(=O)(CC1CCCCO1)Nc1cc(F)ccc1-n1cccn1", "stereo": "centres undefined", "A": -10.36, "B": -27.69}
{"compound": "Cn1ccc(CS(=O)(=O)Cc2ccccc2)cc1=O", "A": 0.5588, "B": "-4.853 & -13.25"}

From ChEMBL document CHEMBL3988442, “University of Dundee, Small-Polar-MMV Screening Library” (2021).